Measured values taken from the supplement of paper PMC4604168 (melanoma cell lines).
Some of the results follow. Many values rest on one well or one pass, so single values are uncertain.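 Cells were imaged in 1,536-well plates, and nuclei stained with an antibody against cleaved PARP were counted against all DNA-stained nuclei to give the apoptosis fraction. Screening doses were chosen to leave most cells alive, and resting and induced cleaved-PARP levels differ strongly between cell lines.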

Each compound was assayed on IST-MEL1 (assay: cleaved PARP positive nuclei fraction relative to DMSO control; melanoma cells; higher = more apoptosis). Settings: library dose: low library concentration; 72 h.

First: Cc1cc(Nc2cc(N3CCN(C)CC3)nc(Sc3ccc(NC(=O)C4CC4)cc3)n2)n[nH]1 [Tozasertib] + N#Cc1c(O)c2c(-c3ccc(-c4ccccc4O)cc3)csc2[nH]c1=O [A769662] (first compound 0.006 µM, partner dose 2 µM)
Second: Cc1ccc(Nc2nccc(N(C)c3ccc4c(C)n(C)nc4c3)n2)cc1S(N)(=O)=O [Pazopanib] + N#Cc1c(O)c2c(-c3ccc(-c4ccccc4O)cc3)csc2[nH]c1=O [A769662] (first compound 0.4 µM, partner dose 2 µM)
The “cleaved PARP positive nuclei fraction” value of the first is lower: 65.8% for the first, 94.7% for the second.

First: O=C(Nc1cc(C(F)(F)F)cc(C(F)(F)F)c1)c1cc(Cl)ccc1O + COc1ccc(COc2ccc(Cc3cnc(N)nc3N)cc2OC)cc1 [GW2580] (first compound 0.016 µM, partner dose 1 µM)
Second: O=C(/C=C/c1cccnc1)NCCCCC1CCN(C(=O)c2ccccc2)CC1 + COc1cc(N2CCC(N3CCN(C)CC3)CC2)ccc1Nc1ncc(Cl)c(Nc2ccccc2S(=O)(=O)C(C)C)n1 [NVP-TAE684] (first compound 0.01 µM, partner dose 0.08 µM)
The “cleaved PARP positive nuclei fraction” value of the first is higher: 240% for the first, 70.7% for the second.

First: N#CC[C@H](C1CCCC1)n1cc(-c2ncnc3[nH]ccc23)cn1 [ruxolitinib] + Cn1cc(/C=C2\C(=O)Nc3cccnc32)c2ccccc21 [GW441756] (first compound 1 µM, partner dose 0.4 µM)
Second: O=C(/C=C/c1cccnc1)NCCCCC1CCN(C(=O)c2ccccc2)CC1 + Oc1nc(-c2ccc(C(F)(F)F)cc2)nc2c1CSCC2 [XAV939] (first compound 0.01 µM, partner dose 2 µM)
The “cleaved PARP positive nuclei fraction” value of the first is higher: 149% for the first, 88.9% for the second.

Compared with `CCCCCCCCCCCCCCCCCCOP(=O)([O-])OC1CC[N+](C)(C)CC1` [Perifosine] + Oc1nc(-c2ccc(C(F)(F)F)cc2)nc2c1CSCC2 [XAV939] (first compound 0.4 µM, partner dose 2 µM), `O=C(/C=C/c1cccnc1)NCCCCC1CCN(C(=O)c2ccccc2)CC1` + O=c1cc(-c2cccc3c2Sc2ccccc2S3)oc(N2CCOCC2)c1 [KU55933] (first compound 0.01 µM, partner dose 1 µM) is higher in “cleaved PARP positive nuclei fraction” value: 86.2% for the first, 208% for the second.

Going from `N#CC[C@H](C1CCCC1)n1cc(-c2ncnc3[nH]ccc23)cn1` [ruxolitinib] + COc1cc2ncnc(Nc3ccc(Oc4ccccc4)cc3)c2cc1OC [SrcI1] (first compound 1 µM, partner dose 2 µM) to `O=c1[nH]nc(Sc2ncc([N+](=O)[O-])s2)n1-c1ccc2c(c1)OCCO2` + N#Cc1c(O)c2c(-c3ccc(-c4ccccc4O)cc3)csc2[nH]c1=O [A769662] (first compound 0.2 µM, partner dose 2 µM), the “cleaved PARP positive nuclei fraction” value falls from 71.8% to 56%.

Compared with `O=C(Nc1cc(C(F)(F)F)cc(C(F)(F)F)c1)c1cc(Cl)ccc1O` + CCN(CC)CCCCNc1ncc2cc(-c3cc(OC)cc(OC)c3)c(NC(=O)NC(C)(C)C)nc2n1 [PD173074] (first compound 0.016 µM, partner dose 0.1 µM), `O=c1[nH]nc(Sc2ncc([N+](=O)[O-])s2)n1-c1ccc2c(c1)OCCO2` + COc1ccc2c(c1)CCC1C2CCC2(C)C(NCCCCCCN3C(=O)C=CC3=O)CCC12 [U73122] (first compound 0.2 µM, partner dose 0.4 µM) is higher in “cleaved PARP positive nuclei fraction” value: 66.6% for the first, 138% for the second.

First: CCCCCCCCCCCCCCCCCCOP(=O)([O-])OC1CC[N+](C)(C)CC1 [Perifosine] + COc1ccc2c(c1)CCC1C2CCC2(C)C(NCCCCCCN3C(=O)C=CC3=O)CCC12 [U73122] (first compound 0.4 µM, partner dose 0.4 µM)
Second: N#CC[C@H](C1CCCC1)n1cc(-c2ncnc3[nH]ccc23)cn1 [ruxolitinib] + O=C(Nc1ccccc1)c1cc([N+](=O)[O-])ccc1Cl [GW9662] (first compound 1 µM, partner dose 2 µM)
The “cleaved PARP positive nuclei fraction” value of the first is lower: 56.9% for the first, 64.1% for the second.

`CCCCCCCCCCCCCCCCCCOP(=O)([O-])OC1CC[N+](C)(C)CC1` [Perifosine] + Cc1cc([N+](=O)[O-])ccc1NS(=O)(=O)c1cc(Cl)ccc1Cl [FH535] (first compound 0.4 µM, partner dose 1 µM) was tested, and the “cleaved PARP positive nuclei fraction” value was 166%.
